Mtb glucose medium: 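Growth of Mycobacterium tuberculosis over 3 days (7H9 medium with glucose and tyloxapol); the read-out is not stated. Concentration: 50 µM. Direction is inferred from retests: higher values go with more growth inhibition. Of about 69,000 compounds tested this way, about 760 (1.1%) reached 50% or more in at least one test.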
Mtb cholesterol medium: 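Whole-cell growth test on Mycobacterium tuberculosis, read after 4 days in a medium based on cholesterol and the lipid DPPC; the read-out is not stated. Concentration: 50 µM. Direction is inferred from retests: higher values go with more growth inhibition. Size under these conditions: about 69,000 compounds, about 370 of them at 50% or above in at least one test.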

The filed quantity is “Percent Effect” (%). The controls that fix the scale are not given in the record; negative values are as filed. The compounds are a random part of those screened. Two or more numbers in one place are separate tests of the same structure; such repeats can differ widely.

| compound | Mtb glucose medium | Mtb cholesterol medium |
|---|---|---|
| `COCCCn1ccc(NC2CCOCC2)n1` | 0.5252 & -16.93 | -13.22 |
| `O=C(CCNS(=O)(=O)c1ccc(F)c(F)c1)NCc1ccoc1` | 14.93 | -11.75 & 5.903 |
| `COCCNC(=O)c1cccnc1Sc1cc(OC)ccc1OC` | -21.62 | -29.29 |
| `Fc1ccc(-c2nnc(CN3CCCC3Cn3cccn3)o2)cc1` (stereo not shown) | 13.77 | -6.282 |
| `O=C(CCN1CCCCC1)N1CCC(Cc2ccc(CO)cc2)C1` (stereo not shown) | 13.56 | -11.2 |
| `COC(=O)c1ccc(NC2CCN(CC(F)(F)F)C2=O)cc1C` (stereo not shown) | -24.34 & 6.582 | -3.816 |
| `O=C(O)C(F)(F)F.[H][C@@]12CN(Cc3nccs3)C[C@H](C(=O)NCC3CC3)[C@]1([H])CCO2` | -33.55 | -9.341 & -4.731 |
| `O=C(CCCn1cccn1)N1CCCC(n2cncn2)C1` (stereo not shown) | -11.57 | -12.16 |
| `O=C(CCn1cccc1)NCc1ccc(CN2CCCCCC2)o1` | 1.034 | -4.929 |
| `CCc1ccc(NC(=O)C(C)Nc2cccc3c2OCCO3)cc1` (stereo not shown) | -10.48 | 6.925 |
| `CCc1nc(N2CCC3(CCC(=O)N(CCCO)C3)CC2)no1` | -2.511 & -9.929 | -21.2 |
| `O=C(c1ccc(-n2cccn2)nc1)N1CCCC(c2cnccn2)C1` (stereo not shown) | -21.58 | -18.32 |
| `CC(C)(C)c1ccc(C2(C(=O)NCCCS(C)(=O)=O)CC2)cc1` | -10.95 | -12.03 |
| `O=C(Nc1cccc(CN2CCOC2=O)c1)N1CCSCC1` | -2.401 & 21.49 | -1.571 |
| `O=C(CN1CCc2sccc2C1)Nc1nccs1` | -5.702 | 4.242 |
| `COCc1ccc(C(=O)N2CCCN(C(=O)OCC(C)C)CC2)cc1` | -21.58 & 3.335 | -33.91 |
| `O=C(O)c1ccc(=O)n(CC(c2ccc(Cl)cc2)N2CCCCCC2)c1` (stereo not shown) | -30.28 | 11.01 & -3.407 |
| `CCN(CC)Cc1ccc(C(=O)N2CCCC2Cn2cccn2)cc1` (stereo not shown) | -22.2 | -1.443 |
| `CCN1CC(C(=O)N2CC(Oc3ccccc3F)C2)CC1=O` (stereo not shown) | 11.9 | -1.437 & -1.33 |
| `[H][C@@]12C[C@@H](OCc3cccc(C)n3)CN1CCN(C(=O)c1cnccn1)C2` | -4.209 & -0.173 | 0.2909 |
| `Cc1nn(C)c(C)c1C1COCCN1C(=O)c1cnc(N)c(Cl)c1` (stereo not shown) | -9.609 | -29.56 |
| `CN1C[C@H](O)[C@]2(CCN(Cc3ccc(F)c(F)c3)C2)S1(=O)=O` | 3.015 | -7.923 |
| `Cc1nc2ccccc2nc1CN1CCCC(Cn2cncn2)C1` (stereo not shown) | -6.052 | 14.08 |
| `CC(=O)N1CCC(Nc2cc(F)ccc2OCC2CCCO2)CC1` (stereo not shown) | -6.402 | -32 |
| `c1cncc(CN2CC(Cc3nccc4cc[nH]c34)C2)c1` | -0.1483 | -10.78 |
| `O=C(CC1Cn2ncnc2NC1=O)Nc1ccccc1` (stereo not shown) | 10.28 | -20.85 |
| `[H][C@@]12CN(c3nccs3)C[C@]1([H])N(Cc1ccccc1OC)C(=O)O2` | 2.3 | -6.015 |
| `O=C(c1cccnc1SCc1ccccc1)N1CCOCC1` | -16.2 | -31.71 |
| `O=C(O)C(F)(F)F.[H][C@@]12CN(C(=O)c3ccccc3)CCO[C@]1([H])CN(c1ncccn1)C2` | -13.08 & 1.404 | 5.314 |
| `Cc1ccsc1CNC(=O)c1ccc(N2CCOC2=O)cc1` | 20.53 | 5.457 |
| `CN1CCCn2c(nc(CNS(=O)(=O)C3CC3)cc2=O)C1.O=C(O)C(F)(F)F` | -37.72 & 1.8 | 2.305 |
| `CCOc1cccc(COC(=O)c2cc(C)on2)n1` | 22.36 | -2.607 |
| `Cc1nccn1Cc1nnc(C2CCCN(Cc3cccnc3)C2)n1C` (stereo not shown) | -17.52 | -12.8 |
| `CC(O)CN1CCC(CNCc2ccc(C#N)cc2)CC1` (stereo not shown) | -4.492 | 15.82 |
| `Cc1noc(C)c1C(=O)NCC1CCCCN1Cc1ccccc1` (stereo not shown) | -0.5535 | -6.18 |
| `COc1cc(C(C)=O)ccc1OCC(=O)N(C)Cc1cnn(C)c1` | 27.19 | 4.798 |
| `Nc1nc2c(c(N3CCCC(CN4CCCC4=O)C3)n1)CCNCC2` (stereo not shown) | 23.08 | -4.508 |
| `CCc1nc2ccccc2c(=O)n1CC1(O)CCNCC1.Cl` | 11.96 | 0.9247 |
| `COCC1CN(C(=O)Cc2ccc(F)cc2)Cc2ccnn2C1` (stereo not shown) | 8.238 | -13.01 |
| `Cc1noc(CNc2ccc(CC(=O)N3CCSCC3)cc2)n1` | -1.23 | -10.7 & -1.303 |
| `CC(C)n1[nH]c(=O)c2c1NC(=O)CSC2C1CCCCC1` (stereo not shown) | 11.26 | 15.22 |
| `COCCn1ccnc1CN1CCc2[nH]cnc2C1c1cccc(O)c1` (stereo not shown) | -9.853 | -1.111 |
| `CCc1n[nH]c(C2CN(C(=O)Cc3cccs3)CCO2)n1` (stereo not shown) | -13.96 | -26.39 |
| `Cc1ccc2c(c1)CN(C(=O)C1CCCCC1)C(CN(C)C)CO2.Cl` (stereo not shown) | -3.362 | -5.34 |
| `Cn1ccc(CN2CCC(COC3CCCC3)CC2)cc1=O` | 5.133 | 12.13 |
| `O=C(C1CCOc2ccccc21)N1CCOc2cccc(F)c21` (stereo not shown) | 19.7 | 13.76 |
| `O=C(Cc1ccc(O)c(Cl)c1)N1CCCCC1CCn1cccn1` (stereo not shown) | 6.038 | 3.398 |
| `CCC(C)N1CCC(Oc2ccc(C(=O)NCCN(C)C)cc2Cl)CC1` (stereo not shown) | 2.17 & 23.12 | 6.316 |
| `CCOC(=O)Cc1cs/c(=N/C(=O)COc2cnc(C)cc2O)[nH]1` | -31.6 | -12.2 |
| `O=C(O)C(F)(F)F.O=C(c1ccsc1)N1CCC2(CCN(Cc3ccccn3)C2=O)C1` (stereo not shown) | -3.019 | 3.318 |
| `CCN(CC)C(=O)Cn1nc(C(C)C)c2cnn(C(C)(C)C)c2c1=O` | 10.76 | -25.7 |
| `Cc1cc(C(=O)N2CCCC2c2nc(O)cc(C(C)C)n2)on1` (stereo not shown) | 15.28 | 12.7 |
| `COc1cccc(C(=O)N2CCOCC2CN(C)C)c1OC.O=CO` (stereo not shown) | 13.83 | 5.918 |
| `O=C1CN(C(=O)c2cccc(C(F)(F)F)c2)CC(O)CN1CC1CC1` (stereo not shown) | -34.41 | -31 |
| `CCN(Cc1nonc1C)C(=O)Cn1nc(C(F)(F)F)cc1C1CC1` | 13.16 | 5.446 |
| `[H][C@@]12CCN(C(=O)CCc3ccc(OCC)cc3)C[C@]1([H])OCCNC2=O` | -7.947 & 9.207 | 2.823 |
| `C=C(C)COc1cccc(C(=O)N(CC)Cc2nc(COC)no2)c1` | -19.77 | -4.482 |
| `O=C(O)C(F)(F)F.[H][C@@]12CCN(c3ccc(C)nn3)C[C@]1([H])CN(C(=O)c1ccn(C)n1)C2` | 2.139 | -4.63 |
| `O=C(NC1CC1)N1CCc2ccc(=O)n(CC3CC3)c2CC1` | 1.966 & -1.135 | 12.03 |
| `CCn1c(C)cc(-c2csc(Cn3ccc(=O)[nH]c3=O)n2)c1C` | -2.098 & -4.778 | -7.551 |
| `COc1ccc2c(c1)c(C(=O)Nc1nnn[nH]1)cn2C` | 34.52 & 2.093 | -4.645 |
| `Cc1nc(CCNC(=O)N2CCC(Cc3cnn(C)c3)C2)cs1` (stereo not shown) | 5.575 & 31.68 | -7.953 |

8 of the entries, repeated:

{"compound": "Cc1noc(C)c1C(=O)NCC1CCCCN1Cc1ccccc1", "stereo": "stereo not shown", "Mtb glucose medium": -0.5535, "Mtb cholesterol medium": -6.18}
{"compound": "COC(=O)c1ccc(NC2CCN(CC(F)(F)F)C2=O)cc1C", "stereo": "stereo not shown", "Mtb glucose medium": "-24.34 & 6.582", "Mtb cholesterol medium": -3.816}
{"compound": "C=C(C)COc1cccc(C(=O)N(CC)Cc2nc(COC)no2)c1", "Mtb glucose medium": -19.77, "Mtb cholesterol medium": -4.482}
{"compound": "[H][C@@]12CN(c3nccs3)C[C@]1([H])N(Cc1ccccc1OC)C(=O)O2", "Mtb glucose medium": 2.3, "Mtb cholesterol medium": -6.015}
{"compound": "O=C(O)C(F)(F)F.O=C(c1ccsc1)N1CCC2(CCN(Cc3ccccn3)C2=O)C1", "stereo": "stereo not shown", "Mtb glucose medium": -3.019, "Mtb cholesterol medium": 3.318}
{"compound": "O=C(c1cccnc1SCc1ccccc1)N1CCOCC1", "Mtb glucose medium": -16.2, "Mtb cholesterol medium": -31.71}
{"compound": "O=C1CN(C(=O)c2cccc(C(F)(F)F)c2)CC(O)CN1CC1CC1", "stereo": "stereo not shown", "Mtb glucose medium": -34.41, "Mtb cholesterol medium": -31}
{"compound": "O=C(O)c1ccc(=O)n(CC(c2ccc(Cl)cc2)N2CCCCCC2)c1", "stereo": "stereo not shown", "Mtb glucose medium": -30.28, "Mtb cholesterol medium": "11.01 & -3.407"}

Measurements from “University of Dundee, Small-Polar-MMV Screening Library” (2021), ChEMBL document CHEMBL3988442.